Assay results from US20200079842A1.
Results are given in words; binding and its absence hold for the method and conditions named. Some results given as binding are weak or reduced against the parent protein; the word gives no strength. Each block holds one binder with its values, some of them ahead of it.

How the values were obtained:
[1] = biological target: FLAG-tagged netrin-1 (Adipogen) (human) (UniProt O95631); assay: ELISA-type assay, netrin-1 coated on the plate (legend paragraph 28: FLAG-tagged Netrin-1, APOTECH; Example 3: His-tagged Netrin-1, R&D), anti-mouse IgG-HRP, luminescence
[2] = biological target: FLAG-tagged netrin-1 (Adipogen) (human) (UniProt O95631); assay: competition ELISA: FLAG-tagged netrin-1 with rising 4C11 on coated UNC5B-Fc, bound netrin-1 detected with anti-FLAG-HRP, luminescence
[3] = biological target: netrin-1 mutant K358L (human) (UniProt O95631); assay: in vitro binding assay of netrin-1 mutants

binding [1]: binds | binding [2]: binds
B1: murine 4C11 (IgG1) antibody (antibody, V domains shown)
VH: QAYLQQSGAELVRPGASVKMSCKASGYTFTSYNMHWVKQTPRQGLEWIGAIYPGNGDTSYNQKFKGKATLTVDKSSSTAYMQLSSLTSEDSAVYFCARGGTGFAYWGQGTLVTVSA
VL: SIVMTQTPKFLLVSAGDRVTITCKASQSVSNDVAWYQQKPGQSPKLLIYYASNRYTGVPDRFTGSGYGTDFTFTISTVQAEDLAVYFCQQDYSSPWTFGGGTKLEIKR

binding [3]: binds
B2: HUM03 (antibody, human IgG1, V domains shown)
VH: QVQLQQSGPGLVKPSQTLSLTCAISGYTFTSYNMHWVRQATGQGLEWMGAIYPGNGDTSYNQKFKGRLTISKDTSKNQVVLTMTNMDPVDTATYYCARGGTGFAYWGQG
VL: DIQMTQSPSSLSASVGDRVTITCKASQSVSNDVAWYQQKPGQAPRLLIYYASNRYTGIPPRFSGSGYGTDFTLTINNIESEDAAYYFCQQDYSSPWTFGQG
